For assay [1], the target named is T1, EMP1 (endogenous) (human (endogenous in PC3)) (UniProt P54849).
T1 sequence: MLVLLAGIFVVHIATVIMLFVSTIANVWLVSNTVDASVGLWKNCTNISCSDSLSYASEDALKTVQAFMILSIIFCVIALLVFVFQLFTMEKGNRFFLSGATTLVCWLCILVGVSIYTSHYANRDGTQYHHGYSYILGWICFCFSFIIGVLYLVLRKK
Kind of assay: co-IP; endogenous proteins in PC3 cell lysates (Supplementary Figure S2); immunoprecipitation and western blotting.

Protein sequences, listed by entry. Tags and fused reporters are not part of them.
UniProt O75131: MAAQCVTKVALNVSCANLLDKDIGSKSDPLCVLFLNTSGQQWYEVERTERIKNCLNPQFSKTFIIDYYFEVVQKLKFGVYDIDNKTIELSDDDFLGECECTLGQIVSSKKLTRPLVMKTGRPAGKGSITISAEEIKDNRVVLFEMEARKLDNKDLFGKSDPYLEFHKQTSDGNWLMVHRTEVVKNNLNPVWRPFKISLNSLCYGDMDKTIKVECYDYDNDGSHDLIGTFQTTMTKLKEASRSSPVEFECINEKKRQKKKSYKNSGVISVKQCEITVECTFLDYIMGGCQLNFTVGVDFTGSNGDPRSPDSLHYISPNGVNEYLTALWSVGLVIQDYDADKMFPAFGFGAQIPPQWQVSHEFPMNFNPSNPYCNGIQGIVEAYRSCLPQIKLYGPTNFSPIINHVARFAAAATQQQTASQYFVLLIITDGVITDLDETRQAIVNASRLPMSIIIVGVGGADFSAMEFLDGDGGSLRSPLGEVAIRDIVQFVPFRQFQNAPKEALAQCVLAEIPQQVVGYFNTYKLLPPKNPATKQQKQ

Assay [2] addresses T2, EMP1 intracellular loop peptide (…) (human).
T2 sequence (peptide): FTMEKGNRF
Kind of assay: pull-down; peptide-bound Sepharose beads or control beads with lysates of HEK293 cells transfected with EGFP-copine-III constructs; western blotting; only the target purified. For orientation: In western blotting, separated proteins are transferred to a membrane and probed.

Assay [3] deals with T3, FLAG-EMP1 (human) (UniProt P54849).
T3 sequence (chain, glycosylated (site not stated)): T1 sequence
Kind of assay: co-IP; lysates of LNCaP #2 and #17 cells (RIPA buffer); primary antibody (anti-FLAG, anti-Src, anti-copine-III or anti-Vav2) overnight at 4 °C, protein G Sepharose; western blotting.

Assay [4] addresses T3, FLAG-EMP1 (human). Kind of assay: co-IP; membrane fraction of Cos7 cells transfected with FLAG-EMP1 and EGFP-copine-III; anti-FLAG antibody or control IgG; western blotting.

No constants are given. Whether binding was seen depends on the method and setting. In cells and extracts the contact can be indirect. Some results given as binding are weak or reduced against the parent protein; the word gives no strength. For some assays here: Where a sequence is shown, tags or fusion partners need not be part of it.

Turning to “copine-III (endogenous) (from UniProt O75131 1-537)”, the binding entry (in assay [1]; in assay [2]; with FLAG-EMP1 (human) [3]) was “binds” in each case.

As for “EGFP-copine-III-WT (from UniProt O75131 1-537)”, the binding entry (with FLAG-EMP1 (human) [4]; in assay [2]) was “binds” in each case.

These data come from publication PMC6172191.
